The source of these data is PMC12229037.

The chains behind the UniProt entries cited, without tags or fusion partners. Where a name states a change or a piece, a line headed by the entry shows the natural chain unless it says otherwise. Residues count along the entry.
UniProt Q09472: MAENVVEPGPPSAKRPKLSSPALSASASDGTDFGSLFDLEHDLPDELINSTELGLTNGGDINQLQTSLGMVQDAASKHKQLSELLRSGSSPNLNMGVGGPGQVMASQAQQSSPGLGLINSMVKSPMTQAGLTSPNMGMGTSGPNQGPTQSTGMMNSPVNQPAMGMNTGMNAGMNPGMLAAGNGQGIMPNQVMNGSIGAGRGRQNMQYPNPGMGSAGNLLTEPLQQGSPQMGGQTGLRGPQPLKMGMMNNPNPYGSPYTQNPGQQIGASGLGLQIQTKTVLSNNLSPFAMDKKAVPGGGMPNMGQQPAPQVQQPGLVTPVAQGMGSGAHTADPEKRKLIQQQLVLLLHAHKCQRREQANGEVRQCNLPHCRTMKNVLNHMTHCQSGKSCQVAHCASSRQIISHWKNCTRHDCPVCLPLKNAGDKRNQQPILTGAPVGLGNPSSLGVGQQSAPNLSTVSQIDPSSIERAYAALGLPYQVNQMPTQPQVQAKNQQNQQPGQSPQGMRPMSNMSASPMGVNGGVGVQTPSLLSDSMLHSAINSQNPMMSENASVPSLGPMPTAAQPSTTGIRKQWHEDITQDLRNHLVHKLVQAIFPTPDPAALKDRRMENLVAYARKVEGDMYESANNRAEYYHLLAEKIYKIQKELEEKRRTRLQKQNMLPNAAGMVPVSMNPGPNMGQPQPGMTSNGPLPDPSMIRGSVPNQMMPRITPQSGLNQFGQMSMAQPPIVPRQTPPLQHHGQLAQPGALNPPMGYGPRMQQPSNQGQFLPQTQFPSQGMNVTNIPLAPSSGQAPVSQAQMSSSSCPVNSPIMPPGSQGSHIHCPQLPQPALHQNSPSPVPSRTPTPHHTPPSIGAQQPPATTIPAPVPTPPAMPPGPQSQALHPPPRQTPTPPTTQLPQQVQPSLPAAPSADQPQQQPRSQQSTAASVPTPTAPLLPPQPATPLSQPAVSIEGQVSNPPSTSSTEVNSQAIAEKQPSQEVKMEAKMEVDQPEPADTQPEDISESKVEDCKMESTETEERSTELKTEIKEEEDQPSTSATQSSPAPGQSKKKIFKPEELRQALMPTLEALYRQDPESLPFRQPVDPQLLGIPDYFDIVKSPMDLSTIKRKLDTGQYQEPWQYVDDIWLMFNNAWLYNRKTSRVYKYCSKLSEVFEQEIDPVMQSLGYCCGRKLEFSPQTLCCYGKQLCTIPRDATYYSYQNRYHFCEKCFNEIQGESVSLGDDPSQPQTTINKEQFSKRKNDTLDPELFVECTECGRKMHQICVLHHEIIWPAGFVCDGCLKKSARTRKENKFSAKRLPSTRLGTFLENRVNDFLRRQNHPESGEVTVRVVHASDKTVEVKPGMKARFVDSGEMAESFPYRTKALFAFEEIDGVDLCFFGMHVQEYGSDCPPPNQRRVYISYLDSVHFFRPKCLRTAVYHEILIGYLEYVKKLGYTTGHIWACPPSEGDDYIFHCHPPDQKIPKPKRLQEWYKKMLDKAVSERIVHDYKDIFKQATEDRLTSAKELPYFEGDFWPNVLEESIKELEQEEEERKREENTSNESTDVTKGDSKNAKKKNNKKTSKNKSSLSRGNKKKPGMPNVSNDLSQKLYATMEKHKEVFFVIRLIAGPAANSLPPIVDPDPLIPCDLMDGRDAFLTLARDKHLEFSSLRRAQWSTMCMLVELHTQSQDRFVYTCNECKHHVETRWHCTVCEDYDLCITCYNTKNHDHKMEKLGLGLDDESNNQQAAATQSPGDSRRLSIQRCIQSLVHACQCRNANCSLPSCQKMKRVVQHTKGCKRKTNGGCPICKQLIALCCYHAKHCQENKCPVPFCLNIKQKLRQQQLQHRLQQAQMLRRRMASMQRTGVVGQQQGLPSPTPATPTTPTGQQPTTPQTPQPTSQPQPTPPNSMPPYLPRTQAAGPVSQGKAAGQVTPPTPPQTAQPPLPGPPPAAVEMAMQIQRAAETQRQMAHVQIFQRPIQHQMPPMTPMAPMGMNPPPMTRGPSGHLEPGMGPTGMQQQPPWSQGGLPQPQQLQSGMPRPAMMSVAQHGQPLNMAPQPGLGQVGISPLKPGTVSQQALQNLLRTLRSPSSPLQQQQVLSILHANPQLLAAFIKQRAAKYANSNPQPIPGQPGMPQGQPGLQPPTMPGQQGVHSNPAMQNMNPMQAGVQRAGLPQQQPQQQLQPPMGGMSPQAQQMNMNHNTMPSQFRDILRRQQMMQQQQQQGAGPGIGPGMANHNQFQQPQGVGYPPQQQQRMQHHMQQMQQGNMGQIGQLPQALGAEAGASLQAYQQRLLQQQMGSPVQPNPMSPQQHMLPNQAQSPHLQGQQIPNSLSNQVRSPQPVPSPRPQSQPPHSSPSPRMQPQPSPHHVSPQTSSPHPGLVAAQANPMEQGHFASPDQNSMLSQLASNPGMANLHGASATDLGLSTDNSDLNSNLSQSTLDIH
GST-p300 aa1-450: residues 1-450 of Q09472
GST-p300 aa1514-1922: residues 1514-1922 of Q09472
UniProt O14744: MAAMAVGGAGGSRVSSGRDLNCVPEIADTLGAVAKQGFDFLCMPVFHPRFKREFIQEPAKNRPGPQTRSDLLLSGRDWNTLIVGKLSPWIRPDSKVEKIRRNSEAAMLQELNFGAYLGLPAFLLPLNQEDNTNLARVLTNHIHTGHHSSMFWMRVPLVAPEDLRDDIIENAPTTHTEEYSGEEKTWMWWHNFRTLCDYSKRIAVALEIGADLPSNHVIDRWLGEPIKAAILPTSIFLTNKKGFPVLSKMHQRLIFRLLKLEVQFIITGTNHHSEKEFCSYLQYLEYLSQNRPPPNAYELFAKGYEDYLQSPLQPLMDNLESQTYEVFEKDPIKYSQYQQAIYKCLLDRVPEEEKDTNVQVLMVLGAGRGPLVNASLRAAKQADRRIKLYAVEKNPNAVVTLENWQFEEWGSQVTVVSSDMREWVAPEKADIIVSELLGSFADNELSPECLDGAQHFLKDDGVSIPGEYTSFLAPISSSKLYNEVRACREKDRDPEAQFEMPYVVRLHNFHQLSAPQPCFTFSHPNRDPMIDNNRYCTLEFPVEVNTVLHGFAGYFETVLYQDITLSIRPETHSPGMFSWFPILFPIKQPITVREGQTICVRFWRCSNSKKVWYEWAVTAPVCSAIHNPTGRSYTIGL

Results are given in words; binding and its absence hold for the method and conditions named. Binding seen in cells or lysates may run through a third protein. Some entries that bind do so weakly or less than the wild type.

One assay addresses p300 (human) (UniProt Q09472). Nature of the assay: co-IP; nuclear extracts of HEK293T cells transfected with PRMT5 or PRMT5 mutant; p300 immunoprecipitated (antibody agarose, 2 h, four washes), Western blotting.
In assay [1] the target is GST-p300 aa1514-1922 (human) (UniProt Q09472). Briefly: pull-down; GST-p300 fragments on glutathione-Sepharose 4B beads; 4 °C, 2 h, four washes; PRMT5 [35S]radiolabeled by in vitro translation or His6 fusion protein detected by anti-His blot (methods); only the target purified.
Another assay concerns the target GST-p300 aa1-450 (human) (UniProt Q09472). Described as above.

For “PRMT5 point mutant (G367A), which lacks methyltransferase activity, Myc-tagged (from UniProt O14744 1-637) (enzyme)”, the binding result with p300 (human) was “binds”.

For “PRMT5 used in the GST pull-down (from UniProt O14744 1-637) (enzyme)”, the binding result (in assay [1]; in the assay with GST-p300 aa1-450 (human)) was “binds” each time.
